These are yes or no findings as the source states them, for the method shown. Binding seen in cells or lysates may run through a third protein.
B1: EphA5 complete cytoplasmic domain (residues 595–1,037) (domain or fragment, UniProt P54756 595-1037)
chain: SGSCCECGCGRASSLCAVAHPSLIWRCGYSKAKQDPEEEKMHFHNGHIKLPGVRTYIDPHTYEDPNQAVHEFAKEIEASCITIERVIGAGEFGEVCSGRLKLPGKRELPVAIKTLKVGYTEKQRRDFLGEASIMGQFDHPNIIHLEGVVTKSKPVMIVTEYMENGSLDTFLKKNDGQFTVIQLVGMLRGISAGMKYLSDMGYVHRDLAARNILINSNLVCKVSDFGLSRVLEDDPEAAYTTRGGKIPIRWTAPEAIAFRKFTSASDVWSYGIVMWEVVSYGERPYWEMTNQDVIKAVEEGYRLPSPMDCPAALYQLMLDCWQKERNSRPKFDEIVNMLDKLIRNPSSLKTLVNASCRVSNLLAEHSPLGSGAYRSVGEWLEAIKMGRYTEIFMENGYSSMDAVAQVTLEDLRRLGVTLVGHQKKIMNSLQEMKVQLVNGMVPL
B2: EphA5 kinase domain (residues 655–956) (domain or fragment, UniProt P54756 655-956)
chain: TYEDPNQAVHEFAKEIEASCITIERVIGAGEFGEVCSGRLKLPGKRELPVAIKTLKVGYTEKQRRDFLGEASIMGQFDHPNIIHLEGVVTKSKPVMIVTEYMENGSLDTFLKKNDGQFTVIQLVGMLRGISAGMKYLSDMGYVHRDLAARNILINSNLVCKVSDFGLSRVLEDDPEAAYTTRGGKIPIRWTAPEAIAFRKFTSASDVWSYGIVMWEVVSYGERPYWEMTNQDVIKAVEEGYRLPSPMDCPAALYQLMLDCWQKERNSRPKFDEIVNMLDKLIRNPSSLKTLVNASCRVSNLL

Target: nonphosphorylated ATM (ataxia-telangiectasia mutated) (human (endogenous in human lung cancer cells))
Assay: pull-down; solution binding assay: EphA5 constructs incubated with anti-pATM, anti-ATM or control IgG-coupled magnetic beads in 500 ul binding buffer (20 mM HEPES pH 6.8, 150 mM KOAc, 2 mM Mg(OAc)2, 2 mM DTT, 0.1% Tween 20) overnight at 4 °C; bound and unbound fractions immunoblotted; only the binder purified

Row | Binder | binding
1 | B1 | no binding
2 | B2 | no binding

From publication PMC4367244
